Reference: paper PMC7198045
No constants are given. Whether binding was seen depends on the method and setting. For part of these data: In cells and extracts the contact can be indirect. Some results given as binding are weak or reduced against the parent protein; the word gives no strength. Sequences can lack the tags named with a protein.

T1: GST-tagged VRK1 1–391 mutant (human) (UniProt Q99986)
T1 sequence: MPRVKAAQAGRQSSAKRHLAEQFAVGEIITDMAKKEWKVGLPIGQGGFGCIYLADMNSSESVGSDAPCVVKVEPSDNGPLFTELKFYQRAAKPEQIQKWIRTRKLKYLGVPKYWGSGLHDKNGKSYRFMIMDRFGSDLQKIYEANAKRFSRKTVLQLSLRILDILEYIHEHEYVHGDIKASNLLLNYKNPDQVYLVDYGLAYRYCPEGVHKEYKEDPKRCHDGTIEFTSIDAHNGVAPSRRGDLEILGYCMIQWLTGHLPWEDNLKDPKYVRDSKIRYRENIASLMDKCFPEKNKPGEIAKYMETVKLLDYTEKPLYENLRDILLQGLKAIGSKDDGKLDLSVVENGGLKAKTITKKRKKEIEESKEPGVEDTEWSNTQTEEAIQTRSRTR

T2: GST-tagged VRK1-WT (human) (UniProt Q99986)
T2 sequence: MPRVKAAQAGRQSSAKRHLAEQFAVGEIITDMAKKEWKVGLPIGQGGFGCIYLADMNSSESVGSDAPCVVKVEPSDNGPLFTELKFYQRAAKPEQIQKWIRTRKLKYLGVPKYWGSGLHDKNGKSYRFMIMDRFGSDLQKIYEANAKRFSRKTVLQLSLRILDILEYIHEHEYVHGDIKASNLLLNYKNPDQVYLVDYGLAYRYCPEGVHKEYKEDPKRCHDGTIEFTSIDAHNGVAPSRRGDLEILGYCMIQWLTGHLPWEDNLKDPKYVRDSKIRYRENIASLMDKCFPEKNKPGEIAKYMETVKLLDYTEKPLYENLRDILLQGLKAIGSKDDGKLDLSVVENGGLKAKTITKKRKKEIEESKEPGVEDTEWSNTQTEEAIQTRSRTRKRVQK

T3: GFP-tagged full-length VRK1 WT (vaccinia-related kinase 1) (human) (UniProt Q99986)
T3 sequence: T2 sequence

B1: HisSUMO-PKP2 (His-tagged Plakophilin-2) (protein, UniProt Q99959 1-881)
chain: MAAPGAPAEYGYIRTVLGQQILGQLDSSSLALPSEAKLKLAGSSGRGGQTVKSLRIQEQVQQTLARKGRSSVGNGNLHRTSSVPEYVYNLHLVENDFVGGRSPVPKTYDMLKAGTTATYEGRWGRGTAQYSSQKSVEERSLRHPLRRLEISPDSSPERAHYTHSDYQYSQRSQAGHTLHHQESRRAALLVPPRYARSEIVGVSRAGTTSRQRHFDTYHRQYQHGSVSDTVFDSIPANPALLTYPRPGTSRSMGNLLEKENYLTAGLTVGQVRPLVPLQPVTQNRASRSSWHQSSFHSTRTLREAGPSVAVDSSGRRAHLTVGQAAAGGSGNLLTERSTFTDSQLGNADMEMTLERAVSMLEADHMLPSRISAAATFIQHECFQKSEARKRVNQLRGILKLLQLLKVQNEDVQRAVCGALRNLVFEDNDNKLEVAELNGVPRLLQVLKQTRDLETKKQITDHTVNLRSRNGWPGAVAHACNPSTLGGQGGRITRSGVRDQPDQHGLLWNLSSNDKLKNLMITEALLTLTENIIIPFSGWPEGDYPKANGLLDFDIFYNVTGCLRNMSSAGADGRKAMRRCDGLIDSLVHYVRGTIADYQPDDKATENCVCILHNLSYQLEAELPEKYSQNIYIQNRNIQTDNNKSIGCFGSRSRKVKEQYQDVPMPEEKSNPKGVEWLWHSIVIRMYLSLIAKSVRNYTQEASLGALQNLTAGSGPMPTSVAQTVVQKESGLQHTRKMLHVGDPSVKKTAISLLRNLSRNLSLQNEIAKETLPDLVSIIPDTVPSTDLLIETTASACYTLNNIIQNSYQNARDLLNTGGIQKIMAISAGDAYASNKASKAASVLLYSLWAHTELHHAYKKAQFKKTDFVNSRTAKAYHSLKD
B2: FLAG-tagged PKP2 (Plakophilin-2) (protein, UniProt Q99959 1-881)
chain: B1 chain

How the values were obtained:
[1] = target: T1, GST-tagged VRK1 1–391 mutant (human); assay: pull-down; GST or GST-VRK1 bound to glutathione-Sepharose 4B resin incubated with HisSUMO-PKP2; bound proteins by Western blot; both purified
[2] = target: T2, GST-tagged VRK1-WT (human); assay: as above
[3] = target: T3, GFP-tagged full-length VRK1 WT (vaccinia-related kinase 1) (human); assay: co-IP; FLAG-PKP2 co-expressed with GFP-VRK1 or GFP in Huh-7 cells, low (40 mg/dl) or high (140 mg/dl) glucose for 3 h; Co-IP buffer (20 mM Tris-HCl pH 7.5, 500 mM NaCl, 0.5 mM EDTA, 10% glycerol); anti-GFP agarose beads; anti-FLAG blot

| Binder | binding [1] | binding [2] | binding [3] |
| --- | --- | --- | --- |
| B1 | no binding | binds | – |
| B2 | – | – | binds |
